In PubChem BioAssay AID493014 (National Center for Advancing Translational Sciences (NCATS), 2011):
In all, about 340,000 compounds went through this assay and about 170 (0.05%) were called active. This list was built around the results that the source calls inconclusive (neither active nor inactive); the mix of calls is not that of the screen. The call rests on the fitted dose curve; in most records, active means well fitted inhibition curve with a large enough effect in the signal ratio, with a control signal flat (not every such curve was filed as active); inconclusive means small, poorly fitted or top-dose-only effect, or effect the other way, or a change in a side signal; inactive means flat fitted curve, though single readings scatter; the % refers to the signal ratio. A potency beside an inconclusive call is a rough fit, not a confirmed value.

Assay: qHTS Assay to Find Inhibitors of Chronic Active B-Cell Receptor Signaling;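 on activity change, negative = inhibition: plate controls were basal doxycycline-induced cells for no effect and cells given 10 µM MG132 for full effect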
Settings: ABC-DLBCL IkBa-CBG/CBR reporter, luminescence ratio (green luciferase fused to IkBa over red control in TMD8 lymphoma cells), 4 h; activity change, negative = inhibition: at 46.1 µM (top of the series)
How it was run: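 Concentration-response series (up to 46 uM) were applied to TMD8 dual-reporter cells for 4 h at 37C with doxycycline. Green/red ratio, after filter-overlap correction, defined %Activity; red signal alone was normalised to basal cells and zero luminescence.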
Potency means the concentration at half of the fitted maximal effect.

SMILES	Potency	activity change, negative = inhibition
Cc1ccc(NC(=O)CN(C)C(=O)c2ccc3[nH]c4c(c3c2)CC(C)CC4)cc1 (configuration not stated)	inconclusive: 13 µM [rising, partial curve, poor fit]	–
Cc1ccc2c(c1)N(CC(=O)N1CCCC1)C(=O)c1cccnc1O2	–	inconclusive: 0.585%
C[C@@H](C(=O)NCc1ccc(S(C)(=O)=O)cc1)[C@H]1C[C@]1(C)[C@H](NC(=O)OCc1ccccc1)c1ccccc1	–	inactive: -14.1%
COC(=O)/C=c1\sc2ncnn2c1=O	inconclusive: 18.4 µM [falling, single point]	–
O=C(COc1ccc(Cl)cc1Cl)NCCCCc1ccccc1	–	inconclusive: 11.5%
O=C1c2ccccc2-c2n[nH]c(=O)c3ccc(N4CCCCC4)c1c23	inconclusive: 3.16 µM [rising, full curve, poor fit]	–
CCN(CC)c1ccc(N2C(=O)CSC2=S)cc1	–	inconclusive: 12.9%
N#Cc1ccc(-c2ccc(Cl)cc2)nc1SCC(=O)c1cccc(Cl)c1	–	inconclusive: 11.3%
CCNC(=S)N1CCC(c2nc3ccccc3s2)CC1	inconclusive: 3.98 µM [falling, partial curve, poor fit]	–
O=C1Nc2ccccc2C1=Nc1ccc(F)cc1	–	inactive: -3.49%
Cc1cccn2c(=O)c(/C=C(\C#N)S(=O)(=O)c3ccc(Cl)cc3)c(N3CCC(C(N)=O)CC3)nc12	inconclusive: 0.461 µM [rising, full curve, poor fit]	–
O=C(Nc1cccnc1Cl)c1cc(-c2ccco2)on1	inconclusive: 11.6 µM [falling, partial curve, poor fit]	–
O=C(CCCn1c(=O)oc2ccccc21)Nc1ccccc1	–	inactive: -9.17%
CCCNC(=O)C(Cc1ccc(F)cc1)NC(=O)c1ccc(C#N)cc1 (configuration not stated)	–	inactive: 1.67%
C=CCSC1=N/C(=C\c2ccc3c(c2)OCO3)C(=O)S1	–	inconclusive: 3.39%
CCOC(=O)CSC1=NC(=O)/C(=C\c2ccc(Cl)cc2)S1	inconclusive: 35.5 µM [falling, single point]	–
Cc1cc(Cl)ccc1OCC(=O)Nc1ccccc1CO	–	inconclusive: -0.652%
OCC1(CO)COC(c2ccccc2)=N1	–	inconclusive: -3.53%
COc1ccc(C)cc1Nc1n[n+](C)c(-c2ccc(C(=O)O)cc2)s1	inconclusive: 0.447 µM [falling, full curve, poor fit]	–
Nc1nc2ccc([N+](=O)[O-])cc2[nH]1	–	inactive: -1.77%
CCOC(=O)N1CCN(C(=O)c2ccccc2N(Cc2ccccc2)S(=O)(=O)c2ccccc2)CC1	–	inactive: 1.51%
CCNC(=S)N/N=C1\CCCCc2ccccc21	inconclusive: 29.1 µM [falling, single point]	–
Cc1ccc(C(=O)NC(c2ccccc2)C(Cl)Cl)cc1 (configuration not stated)	inconclusive: 23.1 µM [falling, partial curve]	–
CCn1c(/C=C/c2ccccc2)nc2ccccc21	–	inactive: 16.3%
CCOCCn1c(N2CCCC2)nc2c1c(=O)[nH]c(=O)n2C	–	inactive: -4.01%
COc1ccc(C(=O)NC(=S)Nc2ccc3c(c2)Cc2ccccc2-3)cc1	–	inconclusive: 3.92%

Reformatted: results already given
SMILES,Potency,"activity change, negative = inhibition"
COC(=O)/C=c1\sc2ncnn2c1=O,"inconclusive: 18.4 µM [falling, single point]",–
O=C(COc1ccc(Cl)cc1Cl)NCCCCc1ccccc1,–,inconclusive: 11.5%
O=C1c2ccccc2-c2n[nH]c(=O)c3ccc(N4CCCCC4)c1c23,"inconclusive: 3.16 µM [rising, full curve, poor fit]",–

(next part)

SMILES	Potency	activity change, negative = inhibition
CCS(=O)(=O)Nc1cccc(C2=NN(C(=O)c3ccco3)C(c3ccco3)C2)c1 (configuration not stated)	–	inconclusive: 0.229%
CCCNC(=O)Cc1c(C)oc2ccccc12	–	inconclusive: 5.34%
CC(C)CC(=O)NC(=S)Nc1ccc(NC(=O)c2cccs2)cc1	–	inconclusive: 25.2%
CN(C)C(=O)CCc1ccc2c3c([nH]c2c1)[C@]1(C)[C@@H](C(=O)N2CCOCC2)C[C@H](CC(=O)NCc2ccco2)C(=O)N1CC3	–	inconclusive: 4.44%
O=C(Nc1ccc(Cl)cc1)N(Cc1nc2ccccc2c(=O)[nH]1)Cc1cccs1	–	inconclusive: 10.6%
CCOC(=O)c1c(-c2ccccc2Cl)cn2ccccc12	–	inconclusive: -2.9%
Cc1cc(C)nc(NS(=O)(=O)c2ccc(NC(=O)COc3ccccc3)cc2)n1	–	inconclusive: -0.788%
CCC(CC)COC(=O)C(C#N)c1nc2ccccc2nc1N1CCOCC1 (configuration not stated)	–	inactive: 8.19%
CN(CC(=O)Nc1ccc(F)c(Cl)c1)S(=O)(=O)c1cccc2nsnc12	–	inactive: -2.6%
CCc1cccc(NC(=O)CN(C)S(=O)(=O)c2cnc[nH]2)c1	–	inconclusive: -0.238%
CCOc1ccc(CN2CCN(Cc3cccc4nonc34)CC2CCO)cc1 (configuration not stated)	–	inconclusive: 1.16%
COc1ccc(F)cc1C(=O)C1CCCN(Cc2cnc(N3CCCC3)s2)C1 (configuration not stated)	–	inconclusive: -13.1%
CC(C(=O)NCC1CCCO1)N1C(=O)C2C3CC(C(Br)C3Br)C2C1=O (configuration not stated)	–	inconclusive: -0.464%
CCn1c(/C=C/N(C)c2ccccc2)[n+](CC)c2ccc(Cl)cc21	–	inconclusive: -2.66%
Cc1cccc(-c2noc(CCCOc3ccc(Cl)cc3Cl)n2)c1	–	inconclusive: 2.07%
CC1CN(CC(=O)c2c(N)n(Cc3ccccc3)c(=O)n(C)c2=O)CC(C)O1 (configuration not stated)	–	inconclusive: 8.89%
COc1ccc2nc(NC(=O)Nc3cccc4ccccc34)sc2c1	–	inconclusive: -4.62%
N#CCCCc1cc2cc(F)ccc2cn1	–	inconclusive: 5.98%
CCOC(=O)C1CCN(C(=O)c2oc3ccc(S(=O)(=O)N4CC(C)CC(C)C4)cc3c2C)CC1 (configuration not stated)	inconclusive: 6.51 µM [falling, partial curve, poor fit]	–
CC(NC(=O)CCc1nnc(Cc2cccc(C(F)(F)F)c2)o1)C1CC1 (configuration not stated)	inconclusive: 35.5 µM [rising, partial curve, poor fit]	–
O=C(N/N=C/c1ccc(Cl)cc1)c1n[nH]c2c1CCCC2	inconclusive: 11.2 µM [falling, partial curve]	–
COc1ccc(C23CC4CC(CC(C(=O)O)(C4)C2)C3)c(F)c1	–	inconclusive: 0.916%
CC(=O)c1ccc(N2CCN(C(=O)c3ccc(Cn4c(=O)[nH]c5ccccc5c4=O)cc3)CC2)cc1	–	inconclusive: -9.85%
O=C(CCNS(=O)(=O)c1ccc(Br)cc1)NCCc1ccc(Cl)cc1	–	inactive: -0.927%
COc1ccc(-c2cc(C(=O)N3CCN(c4ccccc4OC)CC3)no2)cc1	–	inconclusive: -14.3%
CC(C)CC(NC(=O)C1CCC(C)CC1)C(=O)NCc1ccccn1 (configuration not stated)	–	inconclusive: -11.6%

SMILES	Potency	activity change, negative = inhibition
COc1ccc(C(CNC(=O)c2cc(=O)[nH]c3ccccc23)N2CCCC2)cc1 (configuration not stated)	–	inconclusive: 2.84%
Nc1cc(S(=O)(=O)O)cc([N+](=O)[O-])c1O	–	inactive: 0.422%
COc1ccccc1NC(=O)c1cc(Cl)nnc1Cl	inconclusive: 35.5 µM [falling, single point]	–
COc1ccccc1Sc1nc(-c2ccccn2)ncc1OC	inconclusive: 22.4 µM [falling, single point]	–
O=C(/C=C/c1ccc(F)cc1)NC(=S)N1CCN(c2ccccn2)CC1	inconclusive: 25.1 µM [falling, single point]	–
COc1ccc(NC(=O)COc2ccccc2)cc1NC(=O)c1ccco1	–	inconclusive: -5.38%
Cc1ccccc1C(=O)NNC(=S)Nc1cccc(C(F)(F)F)c1	inconclusive: 13 µM [falling, partial curve]	–
COC(=O)c1cccc(NC(=O)CCc2ccccc2)c1	inconclusive: 23.1 µM [falling, partial curve, poor fit]	–
O=c1c2cnn(-c3ccc(F)cc3)c2ncn1Cc1ccc(F)cc1	inconclusive: 2.91 µM [rising, partial curve, poor fit]	–
N#Cc1ccsc1NC(=O)CSc1nnnn1-c1ccc(O)cc1	inconclusive: 35.5 µM [rising, single point]	–
Cn1c(=O)c2c(ncn2CC(=O)N2CCc3ccccc3C2)n(C)c1=O	–	inconclusive: -1.37%
COc1ccc(-c2nnc(-c3ccc(N)cc3)o2)cc1	–	inconclusive: -2.8%
Cc1ccc(C2=NN(C(=O)CSc3nc(N)cc(N)n3)C(c3ccco3)C2)cc1 (configuration not stated)	–	inconclusive: -13.5%
CCC(Sc1nc2n[nH]c(C)c2c(=N)n1-c1ccc(C)c(Cl)c1)C(=O)N1CCOCC1 (configuration not stated)	–	inconclusive: -11.1%
O=C(CSc1nnc(NC(=O)C2CC(=O)N(c3ccc(F)cc3)C2)s1)NCc1ccco1 (configuration not stated)	–	inactive: -2.99%
Cc1cccc(NC(=O)c2ccc(N(C)C3CCCCC3)c([N+](=O)[O-])c2)n1	inconclusive: 7.94 µM [rising, partial curve, poor fit]	–
C=CCn1c(SCC(=O)N2CCOCC2)nc2sc(CC)cc2c1=O	inconclusive: 0.082 µM [falling, full curve, poor fit]	–
COc1ccccc1NC(CC(=O)c1ccccc1)C(=O)OCC(=O)c1ccc(C)cc1 (configuration not stated)	inconclusive: 20.6 µM [falling, partial curve]	–
CCCc1c(C)nc2c(Br)cccc2c1Cl	–	inconclusive: 3.78%
Cc1cc(N2CCN(C(=O)c3ccco3)CC2)n2nc(-c3cccc(Cl)c3)cc2n1	–	inactive: 0.707%
COC(=O)[C@@H]1CC[C@H](C)[C@@H](c2ccc(C)cc2)N1C(=O)c1ccc(/C=N/OC[C@@H](O)[C@H]2O[C@@H]3OC(C)(C)O[C@@H]3[C@H]2O)cc1	–	inconclusive: -8.96%
CCOC(=O)/C(=N\Nc1cc(Cl)ccc1Cl)N1CCN(CC)CC1	inconclusive: 29.1 µM [falling, single point]	–
COc1ccc(C(=O)/C=C/C(=O)N(CC(=O)NC2CCCCC2)CC2CCCO2)c(O)c1 (configuration not stated)	inconclusive: 35.5 µM [rising, single point]	–
COc1ccc(/C=N/NC(=O)CCc2n[nH]c(=O)[nH]c2=O)cc1O	–	inconclusive: -6.12%
Cc1cc(Cl)c2oc(C(=O)N3CCN(C(=O)c4ccco4)CC3)c(C)c2c1	–	inactive: -0.171%
